These are yes or no findings as the source states them, for the method shown. Binding seen in cells or lysates may run through a third protein. A yes stands for co-enrichment or nearness to the bait. Other partners may have been found. Sequences can lack the tags named with a protein.
T1: Flag-HA-tagged Borealin (UniProt Q53HL2)
T1 sequence: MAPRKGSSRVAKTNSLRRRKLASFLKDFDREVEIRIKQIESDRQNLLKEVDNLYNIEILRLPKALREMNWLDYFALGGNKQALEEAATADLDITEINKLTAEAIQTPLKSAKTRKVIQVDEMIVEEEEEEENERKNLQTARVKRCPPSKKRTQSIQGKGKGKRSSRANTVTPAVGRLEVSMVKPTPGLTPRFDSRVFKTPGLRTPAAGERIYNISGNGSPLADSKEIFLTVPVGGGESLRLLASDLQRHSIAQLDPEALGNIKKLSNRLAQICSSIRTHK

Protein sequences, listed by entry. Tags and fused reporters are not part of them. Residues count along the entry.
UniProt P46940: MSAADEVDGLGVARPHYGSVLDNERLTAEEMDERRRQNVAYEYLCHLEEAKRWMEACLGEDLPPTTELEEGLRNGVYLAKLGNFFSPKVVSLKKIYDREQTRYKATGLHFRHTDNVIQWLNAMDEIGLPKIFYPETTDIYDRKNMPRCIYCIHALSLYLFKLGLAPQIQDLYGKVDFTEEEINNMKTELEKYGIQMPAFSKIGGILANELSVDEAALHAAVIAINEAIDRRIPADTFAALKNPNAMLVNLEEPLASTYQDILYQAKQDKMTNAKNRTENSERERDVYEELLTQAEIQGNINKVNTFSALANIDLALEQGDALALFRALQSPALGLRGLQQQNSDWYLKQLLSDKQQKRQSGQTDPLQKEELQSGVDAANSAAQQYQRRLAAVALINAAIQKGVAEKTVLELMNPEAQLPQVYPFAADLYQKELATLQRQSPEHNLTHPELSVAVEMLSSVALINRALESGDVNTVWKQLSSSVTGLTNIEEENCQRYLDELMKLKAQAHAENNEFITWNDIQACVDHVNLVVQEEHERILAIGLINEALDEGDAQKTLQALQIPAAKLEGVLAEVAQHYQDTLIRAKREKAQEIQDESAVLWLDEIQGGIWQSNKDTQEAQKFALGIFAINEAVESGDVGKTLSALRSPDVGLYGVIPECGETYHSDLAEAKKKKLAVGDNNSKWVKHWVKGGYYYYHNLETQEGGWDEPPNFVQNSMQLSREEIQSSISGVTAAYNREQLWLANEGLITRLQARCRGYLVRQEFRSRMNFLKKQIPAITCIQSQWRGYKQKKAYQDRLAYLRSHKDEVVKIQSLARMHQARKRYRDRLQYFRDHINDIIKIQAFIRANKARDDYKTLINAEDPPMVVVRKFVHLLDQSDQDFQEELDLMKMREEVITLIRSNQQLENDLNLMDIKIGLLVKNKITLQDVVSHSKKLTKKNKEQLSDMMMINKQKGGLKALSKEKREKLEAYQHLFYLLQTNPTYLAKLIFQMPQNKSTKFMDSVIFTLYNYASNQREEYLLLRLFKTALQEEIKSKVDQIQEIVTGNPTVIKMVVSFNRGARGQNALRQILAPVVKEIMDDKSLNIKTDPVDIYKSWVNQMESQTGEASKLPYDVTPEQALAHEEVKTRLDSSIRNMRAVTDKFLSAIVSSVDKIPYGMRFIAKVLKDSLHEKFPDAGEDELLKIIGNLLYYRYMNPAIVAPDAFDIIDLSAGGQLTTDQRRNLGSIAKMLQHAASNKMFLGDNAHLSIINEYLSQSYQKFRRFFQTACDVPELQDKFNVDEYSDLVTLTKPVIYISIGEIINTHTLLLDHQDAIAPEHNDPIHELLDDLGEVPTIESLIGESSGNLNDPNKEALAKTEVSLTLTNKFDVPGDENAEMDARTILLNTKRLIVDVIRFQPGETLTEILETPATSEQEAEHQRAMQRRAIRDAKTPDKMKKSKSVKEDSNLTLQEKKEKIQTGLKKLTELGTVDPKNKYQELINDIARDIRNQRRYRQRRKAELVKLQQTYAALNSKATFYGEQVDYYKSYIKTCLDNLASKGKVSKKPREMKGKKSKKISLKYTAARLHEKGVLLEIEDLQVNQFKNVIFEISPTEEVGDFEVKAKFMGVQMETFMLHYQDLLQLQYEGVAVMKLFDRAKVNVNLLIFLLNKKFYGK
UniProt P11021, residues 19-654: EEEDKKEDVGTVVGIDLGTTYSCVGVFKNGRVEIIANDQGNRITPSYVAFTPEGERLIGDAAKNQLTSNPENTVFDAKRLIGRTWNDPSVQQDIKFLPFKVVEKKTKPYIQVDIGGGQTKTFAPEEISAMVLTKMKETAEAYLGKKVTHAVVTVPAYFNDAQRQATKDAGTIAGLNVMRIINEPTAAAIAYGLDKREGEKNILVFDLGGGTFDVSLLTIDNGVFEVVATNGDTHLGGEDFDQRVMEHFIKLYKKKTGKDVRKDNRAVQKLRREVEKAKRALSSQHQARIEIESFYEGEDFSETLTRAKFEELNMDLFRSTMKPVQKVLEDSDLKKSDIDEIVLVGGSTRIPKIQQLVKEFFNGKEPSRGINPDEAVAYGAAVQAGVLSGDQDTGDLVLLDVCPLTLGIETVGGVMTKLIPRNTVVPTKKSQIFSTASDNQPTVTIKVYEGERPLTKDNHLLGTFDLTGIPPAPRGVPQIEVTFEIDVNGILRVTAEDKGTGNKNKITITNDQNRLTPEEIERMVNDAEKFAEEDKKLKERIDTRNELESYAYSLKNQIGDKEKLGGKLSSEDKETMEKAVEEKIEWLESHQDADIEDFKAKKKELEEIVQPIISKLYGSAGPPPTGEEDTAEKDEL
UniProt P52732: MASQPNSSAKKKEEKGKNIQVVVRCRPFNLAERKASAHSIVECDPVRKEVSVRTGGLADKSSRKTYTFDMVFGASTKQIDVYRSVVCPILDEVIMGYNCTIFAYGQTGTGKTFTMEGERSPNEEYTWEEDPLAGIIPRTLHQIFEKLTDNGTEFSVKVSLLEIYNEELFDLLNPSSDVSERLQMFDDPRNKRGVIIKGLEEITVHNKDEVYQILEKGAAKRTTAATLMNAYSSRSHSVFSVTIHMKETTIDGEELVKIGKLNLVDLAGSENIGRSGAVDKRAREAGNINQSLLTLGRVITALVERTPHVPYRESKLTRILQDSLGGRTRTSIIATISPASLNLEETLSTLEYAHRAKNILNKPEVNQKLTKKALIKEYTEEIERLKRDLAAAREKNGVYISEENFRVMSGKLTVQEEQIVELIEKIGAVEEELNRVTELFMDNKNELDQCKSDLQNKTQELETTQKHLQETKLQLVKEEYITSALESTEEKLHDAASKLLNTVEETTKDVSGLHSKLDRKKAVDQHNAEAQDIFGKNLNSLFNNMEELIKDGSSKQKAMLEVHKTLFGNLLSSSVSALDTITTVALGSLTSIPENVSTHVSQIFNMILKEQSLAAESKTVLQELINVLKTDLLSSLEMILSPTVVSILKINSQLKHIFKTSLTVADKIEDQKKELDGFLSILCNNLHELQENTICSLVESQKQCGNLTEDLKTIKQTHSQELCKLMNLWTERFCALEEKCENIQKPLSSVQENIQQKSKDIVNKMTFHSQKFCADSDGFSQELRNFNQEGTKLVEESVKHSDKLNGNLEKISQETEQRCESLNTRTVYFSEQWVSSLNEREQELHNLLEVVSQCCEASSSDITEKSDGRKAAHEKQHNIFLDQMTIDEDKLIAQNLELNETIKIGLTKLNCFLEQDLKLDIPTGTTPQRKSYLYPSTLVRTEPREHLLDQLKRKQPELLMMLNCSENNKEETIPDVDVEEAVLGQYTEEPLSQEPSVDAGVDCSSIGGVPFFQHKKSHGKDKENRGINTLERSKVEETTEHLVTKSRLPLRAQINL

T2: Flag-HA-tagged Borealin, Q53HL2
T2 chain: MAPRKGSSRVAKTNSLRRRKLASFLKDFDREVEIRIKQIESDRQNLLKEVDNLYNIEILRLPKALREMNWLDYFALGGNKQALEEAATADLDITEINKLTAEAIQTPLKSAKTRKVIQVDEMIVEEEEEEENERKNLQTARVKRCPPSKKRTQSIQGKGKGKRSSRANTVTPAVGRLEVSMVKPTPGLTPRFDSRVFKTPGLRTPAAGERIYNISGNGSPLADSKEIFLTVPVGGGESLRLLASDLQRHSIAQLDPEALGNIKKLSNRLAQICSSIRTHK


What was measured:
Flag-HA-tagged Borealin = target: T1, Flag-HA-tagged Borealin; assay: affinity purification with mass spectrometry; tandem affinity purification (anti-Flag M2 agarose, then anti-HA agarose, peptide elution) of Flag-HA-Borealin from stable HeLa cells synchronised to cytokinesis by double-thymidine block; BC100 buffer (20 mM Tris-Cl pH 7.5, 20% glycerol, 100 mM NaCl, 0.2 mM EDTA) with 0.1% Triton X-100; SDS-PAGE, gel strips sequenced by mass spectrometry
[1] = target: T2, Flag-HA-tagged Borealin, Q53HL2; assay: as above; conditions: remark: other sources report otherwise

| Molecule | binding (Flag-HA-tagged Borealin) | binding [1] |
| --- | --- | --- |
| IQ domain-containing GTPase-activating protein 1 (from UniProt P46940 1-1657) | binds | – |
| Aurora B, Q96GD4 1-344 (protein) MAQKENSYPWPYGRQTAPSGLSTLPQRVLRKEPVTPSALVLMSRSNVQPTAAPGQKVMENSSGTPDILTRHFTIDDFEIGRPLGKGKFGNVYLAREKKSHFIVALKVLFKSQIEKEGVEHQLRREIEIQAHLHHPNILRLYNYFYDRRRIYLILEYAPRGELYKELQKSCTFDEQRTATIMEELADALMYCHGKKVIHRDIKPENLLLGLKGELKIADFGWSVHAPSLRRKTMCGTLDYLPPEMIEGRMHNEKVDLWCIGVLCYELLVGNPPFESASHNETYRRIVKVDLKFPASVPMGAQDLISKLLRHNPSERLPLAQVSAHPWVRANSRRVLPPSALQSVA | – | binds |

Now from value to molecule:

| binding (Flag-HA-tagged Borealin) | binding [1] | Molecule |
| --- | --- | --- |
| binds | – | ATBP (human (endogenous in HeLa)) |
| binds | – | GRP78 (from UniProt P11021 19-654) |
| binds | – | KIF11 (from UniProt P52732 1-1056) |

Reference: publication PMC7334785
